Data as given in publication PMC6997074.
These are yes or no findings as the source states them, for the method shown. In cells and extracts the contact can be indirect. A yes stands for co-enrichment or nearness to the bait. Other partners may have been found.

Chains of the proteins cited; added tags and fusions are not shown.
UniProt P48431: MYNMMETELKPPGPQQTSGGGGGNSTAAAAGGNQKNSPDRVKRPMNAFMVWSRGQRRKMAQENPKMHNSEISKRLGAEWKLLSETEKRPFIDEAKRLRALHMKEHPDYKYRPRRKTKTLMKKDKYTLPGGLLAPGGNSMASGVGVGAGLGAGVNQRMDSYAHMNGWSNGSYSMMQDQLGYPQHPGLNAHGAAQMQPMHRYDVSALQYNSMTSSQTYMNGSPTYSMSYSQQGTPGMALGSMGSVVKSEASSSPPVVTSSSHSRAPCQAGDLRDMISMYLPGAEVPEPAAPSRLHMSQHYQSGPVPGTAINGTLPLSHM

Molecular target: Epidermal growth factor receptor (human (endogenous in CAL-27)) (UniProt P00533)
Assay: affinity purification with mass spectrometry; CAL-27 cells treated with EGF (100 ng/mL) for 30 min; whole cell lysates immunoprecipitated with an anti-EGFR antibody (Pierce CO-IP Kit); SDS-PAGE, bands cut, LC-MS/MS

SOX2 (from UniProt P48431 1-317)
binding: binds
